Screening data, single-dose tests

By UniProt entry, the sequences of proteins in these tests, tags left out. Residues count along the entry.
UniProt Q8IDJ8, 1-583: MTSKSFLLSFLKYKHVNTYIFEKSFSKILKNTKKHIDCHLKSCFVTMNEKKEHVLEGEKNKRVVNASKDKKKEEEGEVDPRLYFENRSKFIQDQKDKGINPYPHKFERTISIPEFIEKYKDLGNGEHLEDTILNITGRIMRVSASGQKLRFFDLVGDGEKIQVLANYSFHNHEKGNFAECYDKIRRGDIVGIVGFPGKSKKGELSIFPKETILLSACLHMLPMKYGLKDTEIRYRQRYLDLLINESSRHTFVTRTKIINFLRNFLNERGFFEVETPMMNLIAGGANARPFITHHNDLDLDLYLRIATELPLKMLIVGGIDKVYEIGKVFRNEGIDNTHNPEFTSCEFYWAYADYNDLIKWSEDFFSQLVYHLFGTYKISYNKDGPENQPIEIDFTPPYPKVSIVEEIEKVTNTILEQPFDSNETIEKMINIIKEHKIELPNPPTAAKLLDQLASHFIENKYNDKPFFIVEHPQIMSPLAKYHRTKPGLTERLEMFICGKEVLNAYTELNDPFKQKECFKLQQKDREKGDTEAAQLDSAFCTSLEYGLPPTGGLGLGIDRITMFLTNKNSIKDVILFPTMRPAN
UniProt I6X8D2, whole entry: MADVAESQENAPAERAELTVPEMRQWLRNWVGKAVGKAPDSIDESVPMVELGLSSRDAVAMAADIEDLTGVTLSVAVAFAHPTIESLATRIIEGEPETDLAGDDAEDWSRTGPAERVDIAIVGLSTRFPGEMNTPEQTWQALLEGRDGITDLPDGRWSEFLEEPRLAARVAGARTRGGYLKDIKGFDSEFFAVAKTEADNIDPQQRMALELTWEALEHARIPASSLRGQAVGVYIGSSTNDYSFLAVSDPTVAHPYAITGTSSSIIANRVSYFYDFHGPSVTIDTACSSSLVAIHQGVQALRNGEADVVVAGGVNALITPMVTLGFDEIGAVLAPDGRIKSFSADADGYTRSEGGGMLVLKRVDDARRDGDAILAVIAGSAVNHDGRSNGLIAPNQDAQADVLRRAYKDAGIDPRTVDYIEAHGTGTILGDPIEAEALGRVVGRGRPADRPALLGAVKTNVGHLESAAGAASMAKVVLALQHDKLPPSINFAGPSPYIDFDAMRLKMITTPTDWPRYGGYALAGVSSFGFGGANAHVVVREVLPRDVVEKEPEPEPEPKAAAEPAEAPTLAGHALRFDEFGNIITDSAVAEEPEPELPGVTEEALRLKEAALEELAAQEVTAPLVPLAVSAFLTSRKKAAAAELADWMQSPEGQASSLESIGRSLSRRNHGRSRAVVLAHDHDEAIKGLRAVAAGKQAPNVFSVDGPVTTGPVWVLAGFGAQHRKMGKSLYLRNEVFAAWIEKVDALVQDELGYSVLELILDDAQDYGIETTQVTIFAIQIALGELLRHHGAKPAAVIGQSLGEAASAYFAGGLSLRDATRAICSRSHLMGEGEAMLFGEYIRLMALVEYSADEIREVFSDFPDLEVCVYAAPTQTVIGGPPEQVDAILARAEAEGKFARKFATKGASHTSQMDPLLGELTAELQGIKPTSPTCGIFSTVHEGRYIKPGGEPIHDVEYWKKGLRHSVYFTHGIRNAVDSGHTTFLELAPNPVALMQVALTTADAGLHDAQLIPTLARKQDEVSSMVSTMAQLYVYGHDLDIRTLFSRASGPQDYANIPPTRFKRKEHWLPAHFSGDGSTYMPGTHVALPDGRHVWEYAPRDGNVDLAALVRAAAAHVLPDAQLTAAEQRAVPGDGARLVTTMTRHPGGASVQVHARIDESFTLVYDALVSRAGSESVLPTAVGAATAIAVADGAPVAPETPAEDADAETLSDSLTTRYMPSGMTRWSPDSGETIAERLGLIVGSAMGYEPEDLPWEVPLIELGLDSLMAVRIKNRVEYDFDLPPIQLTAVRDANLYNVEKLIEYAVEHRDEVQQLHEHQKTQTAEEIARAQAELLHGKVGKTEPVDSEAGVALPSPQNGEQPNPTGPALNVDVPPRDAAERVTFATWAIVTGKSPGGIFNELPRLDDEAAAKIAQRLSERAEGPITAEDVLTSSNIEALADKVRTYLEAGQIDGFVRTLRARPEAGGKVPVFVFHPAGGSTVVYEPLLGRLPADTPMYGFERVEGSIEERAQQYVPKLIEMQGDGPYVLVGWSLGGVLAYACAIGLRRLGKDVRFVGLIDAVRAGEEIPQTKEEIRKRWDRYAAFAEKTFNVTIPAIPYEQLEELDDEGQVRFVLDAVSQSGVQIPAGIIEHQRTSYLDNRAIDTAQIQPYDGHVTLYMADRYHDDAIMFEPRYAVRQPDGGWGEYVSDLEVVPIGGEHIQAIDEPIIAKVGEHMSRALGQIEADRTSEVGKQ
UniProt P9WNZ1, whole entry: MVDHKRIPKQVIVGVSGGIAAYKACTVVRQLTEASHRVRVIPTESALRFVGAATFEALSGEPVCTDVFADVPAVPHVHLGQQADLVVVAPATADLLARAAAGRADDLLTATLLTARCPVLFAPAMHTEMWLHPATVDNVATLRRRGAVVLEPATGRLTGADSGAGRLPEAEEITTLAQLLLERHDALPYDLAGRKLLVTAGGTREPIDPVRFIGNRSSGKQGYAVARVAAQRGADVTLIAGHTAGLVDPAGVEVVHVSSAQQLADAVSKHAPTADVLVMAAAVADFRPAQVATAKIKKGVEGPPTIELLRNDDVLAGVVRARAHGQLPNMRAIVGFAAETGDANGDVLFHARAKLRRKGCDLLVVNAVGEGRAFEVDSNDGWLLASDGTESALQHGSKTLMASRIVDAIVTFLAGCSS
UniProt Q4DA54, 1-478: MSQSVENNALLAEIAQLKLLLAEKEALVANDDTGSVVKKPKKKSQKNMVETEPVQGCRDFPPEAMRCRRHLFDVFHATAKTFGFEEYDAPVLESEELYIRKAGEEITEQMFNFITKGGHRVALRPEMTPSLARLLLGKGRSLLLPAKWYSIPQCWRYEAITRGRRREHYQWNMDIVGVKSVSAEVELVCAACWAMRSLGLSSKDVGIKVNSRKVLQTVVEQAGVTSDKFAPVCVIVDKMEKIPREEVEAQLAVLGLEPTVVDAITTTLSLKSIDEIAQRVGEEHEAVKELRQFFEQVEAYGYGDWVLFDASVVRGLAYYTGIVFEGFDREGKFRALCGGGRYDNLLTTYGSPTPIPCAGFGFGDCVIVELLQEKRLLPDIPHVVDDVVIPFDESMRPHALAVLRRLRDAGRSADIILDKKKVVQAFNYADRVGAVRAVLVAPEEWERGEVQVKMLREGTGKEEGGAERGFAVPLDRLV
UniProt P9WFT3, whole entry: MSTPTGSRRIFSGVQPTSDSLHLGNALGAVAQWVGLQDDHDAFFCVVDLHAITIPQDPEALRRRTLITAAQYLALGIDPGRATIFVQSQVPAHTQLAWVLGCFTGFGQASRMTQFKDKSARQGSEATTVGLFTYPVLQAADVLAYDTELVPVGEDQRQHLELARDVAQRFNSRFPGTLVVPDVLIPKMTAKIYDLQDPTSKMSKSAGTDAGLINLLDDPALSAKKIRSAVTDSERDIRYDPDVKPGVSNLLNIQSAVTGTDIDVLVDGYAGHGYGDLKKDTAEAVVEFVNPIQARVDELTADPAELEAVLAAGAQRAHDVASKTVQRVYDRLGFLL
UniProt P9WPC5, whole entry: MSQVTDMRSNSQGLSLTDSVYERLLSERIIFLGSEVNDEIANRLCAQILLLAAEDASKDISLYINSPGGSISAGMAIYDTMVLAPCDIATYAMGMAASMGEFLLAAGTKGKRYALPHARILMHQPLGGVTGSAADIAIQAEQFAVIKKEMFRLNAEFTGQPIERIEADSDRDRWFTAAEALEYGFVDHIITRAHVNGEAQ
UniProt P9WPC3, whole entry partner: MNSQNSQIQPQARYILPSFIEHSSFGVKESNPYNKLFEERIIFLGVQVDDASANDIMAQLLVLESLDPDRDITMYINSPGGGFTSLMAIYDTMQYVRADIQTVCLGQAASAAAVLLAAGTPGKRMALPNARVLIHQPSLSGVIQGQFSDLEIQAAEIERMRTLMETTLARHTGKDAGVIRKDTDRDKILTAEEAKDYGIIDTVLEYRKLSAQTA

PfKRS1: 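Enzyme assay of the cytosolic lysyl-tRNA synthetase in 384-well plates, read by luminescence. Target: Lysine-tRNA ligase, Plasmodium falciparum 3D7 (UniProt Q8IDJ8). Concentration: 30 µM. Direction is inferred from only a few compounds that gave an IC50; most scored high, so higher reads as stronger inhibition. Of about 69,000 compounds tested this way, about 49 (0.071%) reached 50% or more in at least one test.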
Pks13 thioesterase: 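Enzyme assay of the thioesterase domain of polyketide synthase 13; the read-out is not stated. Target: Polyketide synthase Pks13, Mycobacterium tuberculosis (UniProt I6X8D2). Tested at 30 µM. The record gives no direction; the compounds picked for IC50 retests had high values, so higher reads as stronger inhibition. About 67,000 compounds were tested under these conditions; 0.46% (about 300) showed 50% or more at least once.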
CoaBC: 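Coenzyme A biosynthesis protein CoaBC, Mycobacterium tuberculosis (UniProt P9WNZ1). Enzyme assay of CoaBC with a phosphate dye (Biomol Green) read at 650 nm. Tested at 30 µM. Direction is inferred from only a few compounds that gave an IC50; most scored high, so higher reads as stronger inhibition. Most strong results did not repeat in a second test. Size under these conditions: about 67,000 compounds, about 40 of them at 50% or above in at least one test.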
TcHisRS: 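Enzyme assay of histidyl-tRNA synthetase; the read-out is not stated. Target: Histidine-tRNA ligase, Trypanosoma cruzi CL Brener (UniProt Q4DA54). Tested at 30 µM. Direction is inferred from retests: higher values go with stronger inhibition. Size under these conditions: about 69,000 compounds, about 31 of them at 50% or above in at least one test.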
MtTrpRS: 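Enzyme assay of tryptophanyl-tRNA synthetase; the read-out is not stated. Target: Tryptophan-tRNA ligase, Mycobacterium tuberculosis (UniProt P9WFT3). Tested at 10 µM. Higher most likely means stronger inhibition; the record gives no direction and few retests gave an IC50. Size under these conditions: about 65,000 compounds, about 64 of them at 50% or above in at least one test.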
ClpP1P2: 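ClpP1P2, Mycobacterium tuberculosis (UniProt P9WPC5 and UniProt P9WPC3). Protease assay of ClpP1P2, read by the AMC dye that it sets free. Tested at 50 µM. Direction is inferred from only a few compounds that gave an IC50; most scored high, so higher reads as stronger inhibition. Most other retested compounds had strongly negative values. Size under these conditions: about 69,000 compounds, about 10 of them at 50% or above in at least one test.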

Each number is a percent effect as filed.
The record does not define 0% and 100%; most values in the screen are far below 50% and negative numbers occur (in some assays of this library far below -100).
Compounds were drawn at random from those tested, without regard to their results.
A dash means the value is not listed here; it may have been measured.

compound,PfKRS1,Pks13 thioesterase,CoaBC,TcHisRS,MtTrpRS,ClpP1P2
CCc1nccc(CN2CCC(CNC(=O)Nc3ccccc3)C2)n1 (centres undefined),-2.635,-6.244,-0.3619,6.533,-3.406,-0.2591
O=C(O)c1ccc(=O)n(CC(c2ccc(Cl)cc2)N2CCCCCC2)c1 (centres undefined),-0.626,12.68,4.205,8.333,-6.496,7.933
Cc1nc(CN2CCCC(N(C)CC3(O)CCCCC3)C2)no1 (centres undefined),-0.2373,-7.062,7.653,5.848,-4.9,1.9
NCCCn1nc(C(F)(F)F)c2c1CCC2,3.231,9.978,0.3681,5.78,-,3.009
CC(=O)c1c(C)nn(CC(=O)Nc2ccc(Br)cc2)c1C,0.01132,35.91,-5.708,32.99,-1.292,9.414
Cc1ccoc1C(=O)N1CC[C@H]2OCC[C@@]2(COCc2ccncc2)C1,6.752,-16.96,3.169,5.435,-0.9923,-2.737
COCCOCC(=O)N1C[C@H]2CC[C@@H]1CN(C1Cc3ccccc3C1)C2,8.331,-22.61,1.288,0,4.837,0.03041
COc1cccc(C(=O)N2CC[C@@H]3[C@H](CC2)N(C)CCS3(=O)=O)c1,3.394,-24.61,0.4673,6.522,-5.862,-1.747
O=C(Cc1c(F)cccc1Cl)N1CCC(Nc2cccnn2)CC1,0.1624,-7.903,6.21,8.876,-6.34,-19.54
c1cncc(N2CCCC3(CN(Cc4cccs4)CCO3)C2)c1 (centres undefined),-7.347,-13.44,3.599,6.077,4.098,12.76
Cc1cccc(COC[C@@]23CCC[C@@H]2CN(S(=O)(=O)N(C)C)C3)n1,9.419,-30.61,3.415,4.902,5.683,-4.083
CC(=O)c1cccc(NC(=O)NCCc2nnc[nH]2)c1,0.6505,-8.069,-0.3659,3.012,5.166,-1.894
Cc1ncc(CN(C)CC(O)c2ccc(Br)cc2)s1 (centres undefined),-2.228,-37.02,4.968,6.122,-5.877,-4.15
COCCN1CCCC12CCN(Cc1cccnc1OC)CC2,-2.83,25.55,-,3.797,5.07,-0.4979
CN(Cc1cccnc1)[C@@H]1CN(CC2CC2)[C@@H]2CCCO[C@H]12,5.505,-10.98,2.157,-1.622,-1.784,-8.444
CCC(CN1CCCC1)NC(=O)Cc1c(C)[nH]c2cc(C)cc(C)c12 (centres undefined),2.021,3.588,0.1236,6.844,-3.922,-6.938
CCN1CCn2nc(CCC(=O)N3CCCC3)cc2C1,0.5351,5.924,-12.72,2.479,-1.42,6.552
Cc1nc(Nc2nccs2)cc(C2CCCN2C2CCOCC2)n1 (centres undefined),6.269,-34.83,3.056,1.622,2.09,2.086
CN(Cc1ccsc1)C(=O)Nc1ccc(N(C)C)nc1,0.5525,6.564,3.675,4.571,-2.98,-51.26
Cc1nccc(C2CCCN(C(=O)c3cncnc3)C2)n1 (centres undefined),1.205,8.961,-1.865,5.639,-0.5464,-2.597
COC(=O)c1ccc(CNCc2cn(C)nc2C)cc1,2.187,6.03,-3.313,5.78,-,3.345
COc1ccc(C2CC(=O)NCc3nc4ccccn4c32)cn1 (centres undefined),9.037,-7.557,4.365,6.122,0,-5.665
CCN(CC)C(=O)Nc1ccc(C(=O)N(C)C)c(C)c1,2.715,-31.46,4.968,0,2.687,-8.951
Cc1cc(CNC(=O)c2cn(CCC3CCCCN3)nn2)on1 (centres undefined),2.649,-17.8,-0.6424,6.818,-2.632,2.187
CCn1nc(C)c(CCNC(=O)c2cccc(-n3cccn3)c2)c1C,3.149,-4.737,5.645,3.911,-9.044,-1.914
Cc1c(Cl)cccc1S(=O)(=O)N1C[C@@H]2CC[C@H](C1)N(C)C2=O,3.709,-11.82,4.459,-0.8,-6.784,-3.036
CS(=O)(=O)N1CCC2(CC1)CC(CC(=O)NCC1CC1)c1ccccc12 (centres undefined),4.321,-4.173,7.431,4,-2.764,2.227
Cc1nc2c(c(N3CCC(CCn4cccn4)CC3)n1)CCNCC2,2.106,-1.738,8.779,6.818,-2.632,-5.685
COCCN1CCO[C@@H]2CN(C(=O)c3ccc4[nH]ccc4c3)CC[C@@H]2C1,-0.6564,-1.729,3.941,2.062,-5.478,-4.084
Cc1nc2c(c(=O)n1C)CN(C(=O)C1CCCN(CC(N)=O)C1)C2 (centres undefined),-1.941,-19.23,-2.82,1.064,12.18,-0.03701
CC(C)(C)NC(=O)NC(=O)CNc1c(F)cccc1N1CCCC1,-1.122,-4.736,-1.399,9.135,0.5939,1.51
Cn1ccc(C(=O)N2CCCC(c3cc(O)n(C)n3)C2)n1 (centres undefined),4.778,7.056,3.676,4.255,-,-0.32
Cc1cc(C)nc(CNC(=O)C(c2cccnc2)N2CCOCC2)n1 (centres undefined),0.8454,-16.76,10.2,2.128,2.062,11.99
O=C(c1ccncc1F)N1CCN(CC2CC2)c2ncccc2C1,-1.388,-18.81,2.019,0.5464,10.45,3.766
COc1ccnc(N2C[C@@H]3CC[C@H](C2)N(CC2CC2)C3)n1,3.057,-40.49,-3.329,2.632,0.6006,-12.07
COc1ncccc1N(C)C(=O)Cn1cc(-c2ccccc2)nn1,-1.767,-23.99,-0.3822,7.182,-1.329,1.984
Cn1cccc1CNCC1CCCn2cc(C(C)(C)C)nc21 (centres undefined),-3.679,3.354,2.58,0,-1.56,-8.648
Clc1cncc(NCc2cccc(OCCN3CCOCC3)c2)n1,-3.772,-3.537,1.33,0.6494,-0.7346,-14.3
O=C(N1CCCC1)N1CCN(c2ccc(Cl)nn2)C(=O)C1,-1.541,-438,3.684,1.775,-6.309,-8.126
CCn1ccnc1CN1CCC(Oc2ccccc2F)(C(=O)O)CC1,5.078,-5.132,5.4,0,-1.383,-14.83
CS(=O)(=O)c1nccn1Cc1ccc(Cl)cc1,1.491,-6.839,-0.4914,4.938,2.436,-10.42
CNC(=O)N1C[C@H]2C[C@H](C(=O)NCc3cccnc3)[C@@H](C1)O2,5.143,-6.878,2.941,10.74,-4.185,-3.132
O=C(CN1CCCC1c1nc2cc(F)ccc2[nH]1)NCc1ccccn1 (centres undefined),2.651,4.298,4.39,0,4.214,-29.56
CCn1cc(CN2CCCC(c3[nH]ncc3-c3ccc(F)cc3)C2)cn1 (centres undefined),0.6707,-12.41,6.203,-2.439,0.2719,-10.44
CCc1nnsc1C(=O)NC(CC(C)C)C(=O)OC (centres undefined),-1.146,-16.13,0.3654,0.5952,-4.581,-7.59
Cc1noc(C2CCCN(C(=O)c3ccc(N(C)C)nc3)C2)n1 (centres undefined),1.121,-14.25,0.7673,8.824,-1.872,-21.98
Cc1nc2nc(C)c3c(=O)n(-c4ccn[nH]4)ccc3n2n1,3.766,1.458,-0.7246,4.516,-3.636,3.086
CCN(Cc1ccc2c(c1)OCCO2)C(=O)c1ccc(C)[nH]c1=O,-0.6497,-7.315,1.648,6.509,-3.704,-18.9

For reference, 3 entries once more:

{"compound": "CCc1nccc(CN2CCC(CNC(=O)Nc3ccccc3)C2)n1", "stereo": "centres undefined", "PfKRS1": -2.635, "Pks13 thioesterase": -6.244, "CoaBC": -0.3619, "TcHisRS": 6.533, "MtTrpRS": -3.406, "ClpP1P2": -0.2591}
{"compound": "Cc1cc(C)nc(CNC(=O)C(c2cccnc2)N2CCOCC2)n1", "stereo": "centres undefined", "PfKRS1": 0.8454, "Pks13 thioesterase": -16.76, "CoaBC": 10.2, "TcHisRS": 2.128, "MtTrpRS": 2.062, "ClpP1P2": 11.99}
{"compound": "Cn1ccc(C(=O)N2CCCC(c3cc(O)n(C)n3)C2)n1", "stereo": "centres undefined", "PfKRS1": 4.778, "Pks13 thioesterase": 7.056, "CoaBC": 3.676, "TcHisRS": 4.255, "ClpP1P2": -0.32}

Data taken from ChEMBL document CHEMBL3988442, “University of Dundee, Small-Polar-MMV Screening Library” (2021).